Results on one molecule are retold here after publication PMC4085599, “Preliminary Studies on Validation of Calu-3 Cell Line as a Model for Screening Respiratory Mucosa Irritation and Toxicity” (Pharmaceutics, 2014).

For this assay, the system named is Calu-3 cells. As to the kind of experiment: MTT cell viability assay on Calu-3 cells after exposure to test solutions. It counts as cell-based, Human. Particulars: 0.2% w/v, 60 min exposure. How it is done:
The Calu-3 cells were used at passages 5–10. They were cultured in 96-well plates (Fisher Scientific) in 1:1 DMEM/F-12 supplemented with 10% FBS, 1% Glutamax®, 100 U/mL penicillin, and […] streptomycin using our previously described method. The tissue culture medium was changed every two days.
Irritant selection, concentration and exposure time were based on mucociliary clearance time and published work in which the compounds were used. […] In order to provide a basis for comparison with other published work using other models three concentrations of the chemicals were selected (0.2%, 0.4% and 1.0%). […] Subsequently, the effect of the test compounds on the cells was determined using MTT assay.
Cell viability screening was based on cellular mitochondrial dehydrogenase (MDH) activity, measured by MTT reduction and conversion to blue formazan salt that was quantified after extraction from cells. […] Extracted formazan salt was quantified spectrophotometrically at 570 nm using Synergy™ HT multimode microplate reader (BioTek Instruments Incorporated). The absorbance of isopropyl alcohol (100 μL) was used as blank. The reduction of cell viability in treated cells was compared to negative control (cells incubated with DMEM/F-12) and expressed as a percentage. […]

Structures are written as SMILES.

On to `CCCCCCCCCCCCCCCC[n+]1ccccc1` [Cetylpyridinium bromide], for which the Calu-3 cells killed result was “more than 90%”.
